Laboratory results published in patent US10620188B2, “Using impedance-based cell response profiling to identify putative inhibitors for oncogene addicted targets or pathways” (ACEA Biosciences, Inc., priority 2002, dated 2020).

Experiments:
[1] = test system: RBL-2H3 PDGFRβ; assay: Impedance response of engineered RBL-2H3 PDGFRβ cells to PDGF stimulation and PDGFR inhibition; assay type: cell-based; conditions: Rattus norvegicus, inhibitor 1 hour, then PDGF BB (10 ng/ml), peak normalized CI, read-out: IC50 acting on PDGFR in the engineered cell line
[2] = test system: H1993; assay: Impedance-based TCRP of Met addicted H1993 cells (xCelligence); assay type: cell-based, human; conditions: increasing concentrations
[3] = test system: C6; assay: Impedance-based TCRP of PDGFR addicted C6 glioma cells; assay type: cell-based, rat

Cc1ccc(NC(=O)c2ccc(CN3CCN(C)CC3)cc2)cc1Nc1nccc(-c2cccnc2)n1 [Imatinib]
IC50 [1]: 135 nM
TCRP (Cell Index response) [2]: None of these inhibitors induced a TCRP similar to PF2341006
IC50 ([3]; Rattus norvegicus, Long-term (96 hours post compound treatment) CI): 275 nM
TCRP (Cell Index response) ([3]; increasing concentrations): dose-dependent short-term increase (to a various degree) and long-term decrease in Cell Index
